Test [1] addresses T1, Recombinant human kallistatin with a his-tag (human) (UniProt P29622).
T1 sequence: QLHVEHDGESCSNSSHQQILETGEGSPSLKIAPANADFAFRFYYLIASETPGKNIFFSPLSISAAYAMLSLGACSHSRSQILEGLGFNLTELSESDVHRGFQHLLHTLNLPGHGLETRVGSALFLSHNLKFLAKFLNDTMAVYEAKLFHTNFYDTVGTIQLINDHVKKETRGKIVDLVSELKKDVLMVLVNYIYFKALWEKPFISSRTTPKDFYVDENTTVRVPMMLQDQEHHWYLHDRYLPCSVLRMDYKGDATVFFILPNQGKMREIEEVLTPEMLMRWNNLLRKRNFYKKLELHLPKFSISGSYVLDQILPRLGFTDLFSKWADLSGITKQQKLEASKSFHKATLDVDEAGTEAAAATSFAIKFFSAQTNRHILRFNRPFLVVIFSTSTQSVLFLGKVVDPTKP
The test can be described thus: co-IP; HUVECs treated with kallistatin for 4 h; cell lysates precipitated with rabbit anti-kallistatin antibody (control rabbit immunoglobulin) and protein A beads, 4°C overnight; immunoblot; only the target purified.

Sequences of proteins named here, by UniProt entry; tags and fusion partners are left off. A change or cut given only in a name is not applied to a line headed by its entry.
UniProt P08253: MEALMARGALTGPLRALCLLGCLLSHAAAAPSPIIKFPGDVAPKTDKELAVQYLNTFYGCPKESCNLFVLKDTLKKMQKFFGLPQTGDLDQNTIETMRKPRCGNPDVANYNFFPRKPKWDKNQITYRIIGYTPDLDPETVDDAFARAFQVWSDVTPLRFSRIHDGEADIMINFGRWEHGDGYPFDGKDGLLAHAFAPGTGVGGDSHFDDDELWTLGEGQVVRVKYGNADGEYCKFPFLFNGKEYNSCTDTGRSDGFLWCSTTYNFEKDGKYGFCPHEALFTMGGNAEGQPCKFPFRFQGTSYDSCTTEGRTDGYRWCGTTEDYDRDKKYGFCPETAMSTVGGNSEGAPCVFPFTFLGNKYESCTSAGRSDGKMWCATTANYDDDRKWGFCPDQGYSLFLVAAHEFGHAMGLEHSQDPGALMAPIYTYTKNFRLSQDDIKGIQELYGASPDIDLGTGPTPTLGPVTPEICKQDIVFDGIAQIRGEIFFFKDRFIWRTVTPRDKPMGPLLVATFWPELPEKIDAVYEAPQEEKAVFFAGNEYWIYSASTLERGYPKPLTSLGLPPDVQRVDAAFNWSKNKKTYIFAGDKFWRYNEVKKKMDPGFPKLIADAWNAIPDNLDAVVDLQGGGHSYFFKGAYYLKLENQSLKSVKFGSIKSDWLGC

Test [2] concerns the target T1, Recombinant human kallistatin with a his-tag (human). The test can be described thus: pull-down; his-tagged kallistatin (3 mg) on Ni-NTA affinity beads, incubated with HUVEC membrane proteins (10 mg) for 16 h at 4°C; washed with PBS; eluted fractions on SDS-PAGE; bands identified by MALDI-TOF peptide mass fingerprinting and confirmed by immunoblot; Ni-NTA beads without kallistatin as control; only the target purified. (In general: Immunoblotting shows a protein as a band on a membrane.)

No constants are given. Whether binding was seen depends on the method and setting. Binding seen in cells or lysates may run through a third protein. Binding calls can cover weak binding; strength is not graded here. Sequences can lack the tags named with a protein.

The values that follow come from paper PMC5788634.

As to MMP2 (from UniProt P08253) (enzyme), the binding entry in test [1] and in test [2] was “binds” throughout.
